Data on one molecule can be found in publication PMC4232476.

The target in experiment [1] is TCTP His76Ala-His77Ala mutant, untagged recombinant (human) (UniProt P13693). The experiment is described as follows: SEC; 16/60 Superdex 75 equilibrated with 50 mM Tris-HCl pH 7.8, 250 mM NaCl, 1 mM hemin; protein pre-incubated with hemin for 15 min; pooled dimer fractions re-run with 50 mM CaCl2 shifted back mainly to monomer; both purified. Background: SEC sorts molecules by how far they enter the pores of the column.

The target is the same in experiment [2]. The experiment is described as follows: SEC; 16/60 Superdex 75, 50 mM Tris-HCl pH 7.8, 250 mM NaCl, 1 mM EDTA; no ligand; both purified.

These are yes or no findings as the source states them, for the method shown. Where a sequence is shown, tags or fusion partners need not be part of it.

B1: TCTP His76Ala-His77Ala mutant, untagged recombinant (protein, UniProt P13693 1-172)
chain: MIIYRDLISHDEMFSDIYKIREIADGLCLEVEGKMVSRTEGNIDDSLIGGNASAEGPEGEGTESTVITGVDIVMNAALQETSFTKEAYKKYIKDYMKSIKGKLEEQRPERVKPFMTGAAEQIKHILANFKNYQFFIGENMNPDGMVALLDYREDGVTPYMIFFKDGLEMEKC
B1: the binding result in experiment [1] and in experiment [2] was “no binding” throughout.
